Test results reported in PubChem BioAssay AID504327 (National Center for Advancing Translational Sciences (NCATS), 2011).
About 820 (0.21%) of roughly 390,000 compounds were called active. Inconclusive means that the source gave no clear call. Such entries were picked first, then a sample of the others. The call rests on the fitted dose curve; in most records, active means well fitted inhibition curve with a large enough effect; inconclusive means small, poorly fitted or top-dose-only effect, or another doubt; inactive means no such curve, though single readings can be large or run the other way. Where the call is inconclusive, the potency comes from a doubtful curve fit.

By UniProt entry, the sequences of proteins in these tests, tags left out.
UniProt Q92830, whole entry, looked up: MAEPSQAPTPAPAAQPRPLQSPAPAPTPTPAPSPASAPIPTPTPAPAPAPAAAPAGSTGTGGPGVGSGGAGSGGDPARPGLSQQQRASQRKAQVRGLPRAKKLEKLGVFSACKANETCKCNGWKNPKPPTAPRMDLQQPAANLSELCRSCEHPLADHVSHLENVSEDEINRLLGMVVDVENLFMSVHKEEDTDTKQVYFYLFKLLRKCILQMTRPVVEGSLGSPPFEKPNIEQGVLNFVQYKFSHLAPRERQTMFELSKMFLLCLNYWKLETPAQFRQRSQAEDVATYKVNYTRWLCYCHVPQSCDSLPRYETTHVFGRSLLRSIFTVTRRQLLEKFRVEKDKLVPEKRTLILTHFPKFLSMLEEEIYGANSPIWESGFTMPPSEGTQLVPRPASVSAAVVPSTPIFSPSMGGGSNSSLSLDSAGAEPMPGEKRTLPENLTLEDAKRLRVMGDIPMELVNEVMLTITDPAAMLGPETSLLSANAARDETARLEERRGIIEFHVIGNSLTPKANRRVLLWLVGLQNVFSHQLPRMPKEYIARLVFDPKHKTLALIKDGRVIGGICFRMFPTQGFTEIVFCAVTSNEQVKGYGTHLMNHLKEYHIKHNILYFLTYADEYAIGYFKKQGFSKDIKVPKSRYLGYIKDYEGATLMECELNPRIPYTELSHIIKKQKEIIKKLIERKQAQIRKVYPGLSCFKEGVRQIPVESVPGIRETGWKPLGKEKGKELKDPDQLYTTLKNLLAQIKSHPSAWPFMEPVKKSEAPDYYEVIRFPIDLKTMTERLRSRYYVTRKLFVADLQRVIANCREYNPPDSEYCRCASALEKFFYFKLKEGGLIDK

What follows are molecules tested against Histone acetyltransferase KAT2A (Homo sapiens) (UniProt Q92830) (assay: qHTS Assay for Inhibitors of GCN5L2). Conditions: GCN5L2 HAT assay, ThioGlo1 CoA-SH fluorescence; activity change, negative = inhibition: at 58.9 µM (top of the series) unless noted.
Procedure, shortened: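 GCN5L2 (20 nM) in 50mM HEPES pH 7.5, 0.1mM EDTA, 0.01% Tween-20 preincubated 15 min with compounds at room temperature. Reaction started with H3(1-25) 75uM, acetyl-CoA 70uM, ThioGlo1 50uM; CoA-thiol fluorescence (Ex340/Em540) read at 0 and 20 min.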
On the % scale 0 is the no-effect control and ±100 the full control effect; potency means the concentration at half of the fitted maximal effect.

Structure (SMILES)	Potency	activity change, negative = inhibition
O=C(NCCS(=O)(=O)N1CCN(c2ccccc2F)CC1)c1cc(=O)c2ccccc2o1	inactive	
CCO/C=C1/C(=O)N(c2ccc(OC)cc2)C(=O)c2ccccc21		inactive: -5.85%
COCCNc1nnc(Cc2ccccc2)c(=O)[nH]1	inconclusive: 0.891 µM [inhibitor, single point]	
CCNc1ccc(Br)cc(C(=O)/C=C/c2c(Cl)cccc2Cl)c1=O	inconclusive: 12.6 µM [inhibitor, partial curve]	
CN1CCN(c2ccccc2NC(=O)c2ccc(-c3ccc(Cl)cc3Cl)o2)CC1		inconclusive: -83.5% [inhibitor]
O=C(N/C(=C/c1ccccc1)C(=O)N1CCCCC1)c1ccco1	inconclusive: 7.08 µM [inhibitor, single point]	
COc1ccc(Cn2c(-c3ccco3)nc3c(c(=O)c4ccccc4n3C)c2=O)cc1	inconclusive: 15.8 µM [inhibitor, partial curve]	
COc1nc(C)nc(C)c1Oc1ccc(Cl)cc1Cl	inconclusive: 0.631 µM [inhibitor, full curve, poor fit]	
COc1ccc(CC(=O)Nc2cc(NC(=O)Cc3ccc(OC)c(OC)c3)cc(C(=O)O)c2)cc1OC		inactive: -6.57%
N#CCCn1c(=O)c(-c2ccc(Cl)cc2)nc2cnc(Oc3cccc(Cl)c3)nc21	inconclusive: 17.8 µM [inhibitor, partial curve]	
COCCNC(=O)CN1C(=O)COc2ccc(S(=O)(=O)N3CC(C)CC(C)C3)cc21 (configuration not stated)	inconclusive: 5.62 µM [inhibitor, single point]	
Cc1cc(NC(=O)CN2C(=O)CSc3ccc(S(=O)(=O)N(C)C)cc32)ccc1Br	inconclusive: 3.16 µM [inhibitor, partial curve]	
O=C(CSC1CN(C(c2ccccc2)c2ccccc2)C1)N/N=C/c1ccc(Cl)cc1Cl	inconclusive: 7.08 µM [inhibitor, single point]	
Cc1ccccc1CS(=O)(=O)c1nnc([C@H](Cc2ccccc2)NC(=O)OC(C)(C)C)o1		inconclusive: -68% [inhibitor]
O=C(O)CCN1C(=O)/C(=C/c2ccc(-c3nc4ccccc4s3)o2)SC1=S	inconclusive: 22.4 µM [inhibitor, partial curve]	
CCOC(=O)c1[nH]c(C)c(C(=O)N2CCc3ccccc32)c1C	inconclusive: 22.4 µM [inhibitor, partial curve, poor fit]	
CCN1C(=O)[C@H]2[C@@H](c3ccc(-c4cccc(Cl)c4)c(OC)c3)N[C@@](Cc3ccccc3)(C(=O)OC)[C@H]2C1=O	inconclusive: 28.2 µM [inhibitor, partial curve]	

Some of the entries above in a different format:
Structure (SMILES) | Potency | activity change, negative = inhibition
COCCNc1nnc(Cc2ccccc2)c(=O)[nH]1 | inconclusive: 0.891 µM [inhibitor, single point] | 
CCNc1ccc(Br)cc(C(=O)/C=C/c2c(Cl)cccc2Cl)c1=O | inconclusive: 12.6 µM [inhibitor, partial curve] | 
